These are yes or no findings as the source states them, for the method shown. In cells and extracts the contact can be indirect. Some results given as binding are weak or reduced against the parent protein; the word gives no strength.
Target: Ras-GTPase-activating protein SH3 domain-binding protein 1 (G3BP1) (human (endogenous in human melanoma cell lines)) (UniProt Q13283)
Assay: co-IP; lysate of melanoma cells (Western and IP Lysis Solution); IP antibody (1 μg) or paired mouse/rabbit IgG at 4 °C overnight; protein A agarose beads; washed with PBS; western blot

Chains of the proteins cited; added tags and fusions are not shown.
UniProt Q13283: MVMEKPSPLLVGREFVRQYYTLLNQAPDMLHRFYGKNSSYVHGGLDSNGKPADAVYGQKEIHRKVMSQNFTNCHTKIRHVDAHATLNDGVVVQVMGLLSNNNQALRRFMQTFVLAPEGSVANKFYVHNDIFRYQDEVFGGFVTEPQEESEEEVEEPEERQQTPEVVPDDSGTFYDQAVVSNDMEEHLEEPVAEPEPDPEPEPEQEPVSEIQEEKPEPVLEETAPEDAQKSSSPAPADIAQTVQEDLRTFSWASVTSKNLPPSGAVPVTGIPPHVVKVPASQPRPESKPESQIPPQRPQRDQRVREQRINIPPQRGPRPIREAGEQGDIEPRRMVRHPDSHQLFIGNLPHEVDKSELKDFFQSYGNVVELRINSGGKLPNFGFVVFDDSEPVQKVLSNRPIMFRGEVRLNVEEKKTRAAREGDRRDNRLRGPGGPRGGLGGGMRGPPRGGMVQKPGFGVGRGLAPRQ
UniProt Q14974: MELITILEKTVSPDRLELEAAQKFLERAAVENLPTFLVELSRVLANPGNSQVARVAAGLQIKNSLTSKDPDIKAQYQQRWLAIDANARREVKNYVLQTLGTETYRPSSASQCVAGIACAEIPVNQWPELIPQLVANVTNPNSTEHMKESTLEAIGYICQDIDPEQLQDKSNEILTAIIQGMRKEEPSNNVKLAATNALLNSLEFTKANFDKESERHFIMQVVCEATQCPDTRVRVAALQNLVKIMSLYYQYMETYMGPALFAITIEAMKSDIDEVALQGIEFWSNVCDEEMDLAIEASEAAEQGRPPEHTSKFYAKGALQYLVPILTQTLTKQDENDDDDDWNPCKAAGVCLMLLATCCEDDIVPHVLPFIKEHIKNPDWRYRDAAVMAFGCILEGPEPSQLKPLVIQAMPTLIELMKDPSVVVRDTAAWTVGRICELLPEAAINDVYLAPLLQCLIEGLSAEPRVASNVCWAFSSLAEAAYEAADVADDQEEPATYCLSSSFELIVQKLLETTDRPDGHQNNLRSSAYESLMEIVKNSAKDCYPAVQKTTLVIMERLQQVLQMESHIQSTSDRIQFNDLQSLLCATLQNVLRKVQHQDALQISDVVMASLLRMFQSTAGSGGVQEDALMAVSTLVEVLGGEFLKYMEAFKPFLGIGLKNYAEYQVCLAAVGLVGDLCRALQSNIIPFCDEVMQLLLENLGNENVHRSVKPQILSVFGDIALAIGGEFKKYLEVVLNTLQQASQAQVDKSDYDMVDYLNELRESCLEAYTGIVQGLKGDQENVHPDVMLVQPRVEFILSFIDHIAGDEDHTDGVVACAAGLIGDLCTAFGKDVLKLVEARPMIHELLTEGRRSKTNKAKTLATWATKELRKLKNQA

For “karyopherin β1 (KPNB1) (from UniProt Q14974 1-876)”, the binding was “binds”.
